Some of the results follow.
Tests used:
Assay in all cases: log2 fold change, soluble protein after heating vs DMSO (PISA); higher = thermal stabilisation; K562 lysate, 10 uM; active = over 0.2 and 3.5 SD of the protein, either way, in both replicates (recomputed)
[1] = compound: C#Cc1cccc(Nc2ncnc3cc(OCCOC)c(OCCOC)cc23)c1 [erlotinib]
Method in brief: (§1)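 Quantification was by TMTpro 16plex LC-MS/MS with equalised channel sums, applied to the supernatant after 21,000xg for 90 min. Samples were crude K562 extract at 1 mg/mL protein in PBS pH 7.4 with 1 mM MgCl2, treated with 10 μM compound for 30 min, heated for 3 min across 48°C-58°C, pooled and brought to 0.5% NP-40 at 4°C. Values are log-two fold changes in thermal stability relative to solvent controls, from duplicates.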

By UniProt entry, the sequences of proteins in these tests, tags left out. Where a name states a change or a piece, a line headed by the entry shows the natural chain unless it says otherwise.
UniProt O75832: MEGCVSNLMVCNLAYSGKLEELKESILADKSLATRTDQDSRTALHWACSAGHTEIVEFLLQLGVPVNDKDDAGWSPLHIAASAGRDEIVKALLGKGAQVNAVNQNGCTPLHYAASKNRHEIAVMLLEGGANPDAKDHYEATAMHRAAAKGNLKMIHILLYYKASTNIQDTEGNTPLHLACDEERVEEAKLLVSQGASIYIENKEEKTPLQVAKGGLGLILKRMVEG
UniProt P23219, whole entry, looked up: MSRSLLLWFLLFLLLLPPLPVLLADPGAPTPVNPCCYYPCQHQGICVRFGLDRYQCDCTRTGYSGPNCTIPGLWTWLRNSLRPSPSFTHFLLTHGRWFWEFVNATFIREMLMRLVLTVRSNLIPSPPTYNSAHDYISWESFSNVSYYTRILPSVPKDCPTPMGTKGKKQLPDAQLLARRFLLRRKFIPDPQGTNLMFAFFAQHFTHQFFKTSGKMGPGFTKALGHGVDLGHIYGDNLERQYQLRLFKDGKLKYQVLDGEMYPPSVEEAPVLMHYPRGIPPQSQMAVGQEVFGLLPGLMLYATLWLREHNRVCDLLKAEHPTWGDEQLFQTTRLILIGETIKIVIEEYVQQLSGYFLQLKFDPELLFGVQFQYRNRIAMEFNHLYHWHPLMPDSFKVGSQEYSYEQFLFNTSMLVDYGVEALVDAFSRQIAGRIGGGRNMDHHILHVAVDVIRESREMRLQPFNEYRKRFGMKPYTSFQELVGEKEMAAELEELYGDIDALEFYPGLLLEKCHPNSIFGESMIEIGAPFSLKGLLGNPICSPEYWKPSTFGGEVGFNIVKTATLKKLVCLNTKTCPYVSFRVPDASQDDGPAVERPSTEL
UniProt P20618: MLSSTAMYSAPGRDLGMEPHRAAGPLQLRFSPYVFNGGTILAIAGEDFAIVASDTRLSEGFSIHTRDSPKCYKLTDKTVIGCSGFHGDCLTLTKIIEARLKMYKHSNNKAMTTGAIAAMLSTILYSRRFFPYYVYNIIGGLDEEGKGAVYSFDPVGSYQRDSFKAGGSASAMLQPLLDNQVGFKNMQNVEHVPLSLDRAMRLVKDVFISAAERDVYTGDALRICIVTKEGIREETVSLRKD
UniProt Q15008: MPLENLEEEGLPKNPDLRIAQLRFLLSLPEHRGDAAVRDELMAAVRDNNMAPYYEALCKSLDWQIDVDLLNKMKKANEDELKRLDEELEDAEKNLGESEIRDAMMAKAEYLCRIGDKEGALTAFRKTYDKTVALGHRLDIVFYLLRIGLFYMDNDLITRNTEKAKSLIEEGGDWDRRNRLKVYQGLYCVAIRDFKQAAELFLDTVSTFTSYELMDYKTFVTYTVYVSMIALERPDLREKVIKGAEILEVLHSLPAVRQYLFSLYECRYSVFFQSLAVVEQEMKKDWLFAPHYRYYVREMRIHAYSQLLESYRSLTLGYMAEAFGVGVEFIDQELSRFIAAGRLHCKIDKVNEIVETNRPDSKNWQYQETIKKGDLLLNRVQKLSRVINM
UniProt P11908: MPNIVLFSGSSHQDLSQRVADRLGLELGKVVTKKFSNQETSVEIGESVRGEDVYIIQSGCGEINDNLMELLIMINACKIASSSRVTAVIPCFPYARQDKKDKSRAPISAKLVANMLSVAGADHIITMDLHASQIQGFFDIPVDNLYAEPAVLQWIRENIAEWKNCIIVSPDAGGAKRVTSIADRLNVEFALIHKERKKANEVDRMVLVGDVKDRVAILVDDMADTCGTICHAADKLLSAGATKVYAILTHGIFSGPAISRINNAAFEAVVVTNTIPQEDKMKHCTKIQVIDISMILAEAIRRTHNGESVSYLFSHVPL
UniProt P49720: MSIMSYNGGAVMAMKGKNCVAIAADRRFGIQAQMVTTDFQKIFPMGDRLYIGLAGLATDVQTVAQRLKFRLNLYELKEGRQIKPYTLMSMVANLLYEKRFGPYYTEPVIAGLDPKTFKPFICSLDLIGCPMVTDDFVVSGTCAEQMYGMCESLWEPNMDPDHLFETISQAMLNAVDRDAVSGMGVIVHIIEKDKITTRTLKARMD
UniProt Q99460, whole entry, looked up: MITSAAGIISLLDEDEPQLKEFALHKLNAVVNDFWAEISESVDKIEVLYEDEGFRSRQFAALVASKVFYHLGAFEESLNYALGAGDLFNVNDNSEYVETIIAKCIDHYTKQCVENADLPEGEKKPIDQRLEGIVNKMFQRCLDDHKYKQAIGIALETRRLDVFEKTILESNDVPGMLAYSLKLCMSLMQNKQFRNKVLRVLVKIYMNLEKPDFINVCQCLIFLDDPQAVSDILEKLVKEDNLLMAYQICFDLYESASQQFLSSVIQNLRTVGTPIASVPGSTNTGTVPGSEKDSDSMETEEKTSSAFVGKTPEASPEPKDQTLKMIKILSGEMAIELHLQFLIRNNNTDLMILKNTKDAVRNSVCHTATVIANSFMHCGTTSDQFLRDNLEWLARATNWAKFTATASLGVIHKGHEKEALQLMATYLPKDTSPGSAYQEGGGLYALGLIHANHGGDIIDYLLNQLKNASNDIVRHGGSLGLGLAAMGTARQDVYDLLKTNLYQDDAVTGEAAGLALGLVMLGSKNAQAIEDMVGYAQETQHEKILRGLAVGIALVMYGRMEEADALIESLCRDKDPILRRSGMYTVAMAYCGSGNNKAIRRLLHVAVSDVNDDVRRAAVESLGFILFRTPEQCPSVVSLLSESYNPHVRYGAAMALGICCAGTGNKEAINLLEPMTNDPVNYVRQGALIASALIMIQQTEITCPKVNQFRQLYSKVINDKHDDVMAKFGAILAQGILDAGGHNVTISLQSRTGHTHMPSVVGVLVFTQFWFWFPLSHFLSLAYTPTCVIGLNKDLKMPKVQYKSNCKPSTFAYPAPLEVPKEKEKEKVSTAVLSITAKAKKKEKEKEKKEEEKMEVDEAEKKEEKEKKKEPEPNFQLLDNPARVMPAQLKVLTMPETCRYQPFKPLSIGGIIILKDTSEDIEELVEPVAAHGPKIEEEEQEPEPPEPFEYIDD
UniProt Q16378: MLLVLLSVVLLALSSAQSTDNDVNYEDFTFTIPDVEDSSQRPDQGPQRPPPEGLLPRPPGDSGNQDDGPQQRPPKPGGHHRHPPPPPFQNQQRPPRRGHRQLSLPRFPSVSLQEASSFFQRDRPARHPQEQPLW
UniProt Q6PGN9: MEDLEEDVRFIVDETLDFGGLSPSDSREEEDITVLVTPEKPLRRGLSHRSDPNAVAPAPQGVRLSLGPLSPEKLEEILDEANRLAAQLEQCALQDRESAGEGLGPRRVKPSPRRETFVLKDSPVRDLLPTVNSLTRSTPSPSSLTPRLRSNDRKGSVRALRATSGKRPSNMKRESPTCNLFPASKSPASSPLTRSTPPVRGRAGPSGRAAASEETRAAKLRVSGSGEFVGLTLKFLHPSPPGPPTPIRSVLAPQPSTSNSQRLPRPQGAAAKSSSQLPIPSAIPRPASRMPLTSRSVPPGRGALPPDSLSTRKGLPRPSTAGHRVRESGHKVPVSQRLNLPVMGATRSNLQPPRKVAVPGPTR
UniProt O95456: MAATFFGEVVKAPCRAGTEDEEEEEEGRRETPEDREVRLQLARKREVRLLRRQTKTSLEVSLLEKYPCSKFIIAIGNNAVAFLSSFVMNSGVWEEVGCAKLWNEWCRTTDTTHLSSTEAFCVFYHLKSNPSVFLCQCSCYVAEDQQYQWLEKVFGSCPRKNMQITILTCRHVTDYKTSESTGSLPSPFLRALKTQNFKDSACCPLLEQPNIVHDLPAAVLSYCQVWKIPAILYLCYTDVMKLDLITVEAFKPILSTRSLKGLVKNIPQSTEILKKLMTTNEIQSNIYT
UniProt P28074: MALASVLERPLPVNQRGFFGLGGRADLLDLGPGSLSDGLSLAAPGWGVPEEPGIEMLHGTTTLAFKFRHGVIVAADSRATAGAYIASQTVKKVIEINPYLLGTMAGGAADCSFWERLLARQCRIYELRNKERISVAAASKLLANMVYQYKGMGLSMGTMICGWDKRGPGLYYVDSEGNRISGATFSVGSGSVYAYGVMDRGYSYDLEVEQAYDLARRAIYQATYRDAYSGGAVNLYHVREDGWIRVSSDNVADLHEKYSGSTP
UniProt Q05209: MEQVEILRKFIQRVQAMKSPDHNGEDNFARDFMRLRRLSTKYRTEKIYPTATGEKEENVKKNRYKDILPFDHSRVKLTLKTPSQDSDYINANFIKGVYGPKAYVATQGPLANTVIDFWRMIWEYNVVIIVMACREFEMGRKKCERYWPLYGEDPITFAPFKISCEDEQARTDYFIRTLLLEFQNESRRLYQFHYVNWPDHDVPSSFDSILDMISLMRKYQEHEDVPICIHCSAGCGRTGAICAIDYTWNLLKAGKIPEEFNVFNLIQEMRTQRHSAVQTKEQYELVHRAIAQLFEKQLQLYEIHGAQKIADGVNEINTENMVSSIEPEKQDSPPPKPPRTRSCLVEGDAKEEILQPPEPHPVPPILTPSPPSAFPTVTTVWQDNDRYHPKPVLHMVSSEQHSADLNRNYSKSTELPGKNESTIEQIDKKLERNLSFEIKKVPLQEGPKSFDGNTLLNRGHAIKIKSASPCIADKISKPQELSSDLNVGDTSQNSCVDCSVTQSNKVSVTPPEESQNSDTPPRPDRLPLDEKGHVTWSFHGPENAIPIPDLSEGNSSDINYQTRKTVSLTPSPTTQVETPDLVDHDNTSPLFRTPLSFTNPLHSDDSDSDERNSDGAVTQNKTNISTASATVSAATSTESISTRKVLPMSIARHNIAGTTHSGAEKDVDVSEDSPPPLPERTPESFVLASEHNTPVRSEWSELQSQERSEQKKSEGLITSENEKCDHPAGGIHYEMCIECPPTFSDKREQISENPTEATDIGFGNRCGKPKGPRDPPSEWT
UniProt Q6GMV3: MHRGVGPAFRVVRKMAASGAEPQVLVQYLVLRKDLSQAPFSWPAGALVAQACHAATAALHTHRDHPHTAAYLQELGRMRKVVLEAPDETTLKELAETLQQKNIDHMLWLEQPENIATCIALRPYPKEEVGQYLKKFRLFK
UniProt P62195, whole entry, looked up: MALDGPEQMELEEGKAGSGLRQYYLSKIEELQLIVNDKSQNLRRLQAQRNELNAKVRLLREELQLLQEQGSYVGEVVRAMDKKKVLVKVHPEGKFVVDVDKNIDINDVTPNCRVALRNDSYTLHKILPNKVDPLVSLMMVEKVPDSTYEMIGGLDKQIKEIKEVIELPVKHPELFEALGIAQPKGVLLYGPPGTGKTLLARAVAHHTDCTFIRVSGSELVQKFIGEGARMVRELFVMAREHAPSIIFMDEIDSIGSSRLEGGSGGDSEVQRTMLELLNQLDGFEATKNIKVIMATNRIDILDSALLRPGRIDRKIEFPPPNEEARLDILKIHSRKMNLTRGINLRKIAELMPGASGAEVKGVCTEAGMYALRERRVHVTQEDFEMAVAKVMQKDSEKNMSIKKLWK
UniProt A2A3K4: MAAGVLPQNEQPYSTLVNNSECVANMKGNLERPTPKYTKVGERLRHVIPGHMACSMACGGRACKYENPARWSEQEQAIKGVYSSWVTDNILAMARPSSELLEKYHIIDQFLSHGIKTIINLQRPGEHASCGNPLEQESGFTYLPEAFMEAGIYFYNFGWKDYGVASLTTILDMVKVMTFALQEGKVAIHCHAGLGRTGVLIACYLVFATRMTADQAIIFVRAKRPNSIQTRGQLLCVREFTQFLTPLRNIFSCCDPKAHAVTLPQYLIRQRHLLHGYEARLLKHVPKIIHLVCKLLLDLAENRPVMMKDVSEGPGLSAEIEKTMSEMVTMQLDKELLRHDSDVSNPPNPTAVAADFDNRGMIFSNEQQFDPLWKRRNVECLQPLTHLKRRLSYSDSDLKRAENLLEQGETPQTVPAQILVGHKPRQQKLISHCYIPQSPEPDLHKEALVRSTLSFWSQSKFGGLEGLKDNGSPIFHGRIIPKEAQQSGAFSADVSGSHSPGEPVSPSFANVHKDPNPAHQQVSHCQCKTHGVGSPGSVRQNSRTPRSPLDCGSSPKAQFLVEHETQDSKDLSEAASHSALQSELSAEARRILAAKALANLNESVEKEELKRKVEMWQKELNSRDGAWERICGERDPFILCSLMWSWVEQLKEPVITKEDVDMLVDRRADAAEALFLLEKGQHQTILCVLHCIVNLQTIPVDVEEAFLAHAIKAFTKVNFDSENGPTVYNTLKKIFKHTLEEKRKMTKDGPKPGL
UniProt Q9BVG9: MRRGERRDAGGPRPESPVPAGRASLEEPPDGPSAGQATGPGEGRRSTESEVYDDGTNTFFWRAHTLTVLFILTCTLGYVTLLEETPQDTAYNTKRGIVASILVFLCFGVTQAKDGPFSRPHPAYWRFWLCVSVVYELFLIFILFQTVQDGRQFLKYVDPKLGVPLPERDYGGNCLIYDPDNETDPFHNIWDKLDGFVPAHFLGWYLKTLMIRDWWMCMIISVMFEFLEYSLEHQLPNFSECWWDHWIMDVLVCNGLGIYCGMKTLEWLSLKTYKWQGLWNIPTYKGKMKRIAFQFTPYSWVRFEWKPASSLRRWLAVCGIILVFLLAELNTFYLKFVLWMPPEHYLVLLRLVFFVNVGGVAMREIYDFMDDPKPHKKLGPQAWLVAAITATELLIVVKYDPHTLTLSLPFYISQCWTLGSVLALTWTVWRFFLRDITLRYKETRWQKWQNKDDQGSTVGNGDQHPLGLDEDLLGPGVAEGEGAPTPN

[2] = compound: C/C(=N\NC(=O)C1=CC(=CC=C1)S(=O)(=O)N2CCOCC2)/C3=C(C=CC(=C3)Cl)O
Method in brief: as §1

[3] = compound: C1=CC(=CC=C1C2=NC3=C(N2)C=C(C=C3)C(=O)N)OC4=CC=C(C=C4)Cl
Method in brief: as §1

[4] = compound: C1=CC2=C(C=CC(=C2)/C=C\3/C(=O)NC(=NCC4=CC=CS4)S3)N=C1
Method in brief: as §1

[5] = compound: C1=CC2=NC=CN=C2C=C1/C=C/3\C(=O)NC(=O)S3
Method in brief: as §1

[6] = compound: C1=CC=C(C=C1)C2=NC(=C(N2)C3=CC=NC=C3)C4=CC(=C(C=C4)Cl)O
Method in brief: as §1

[7] = compound: C1=CC=C2C(=C1)C3=NNC4=CC=CC(=C43)C2=O
Method in brief: as §1

[8] = compound: C1CCN(C1)C(=O)NC2=CC=CC(=C2)NC3=NC=C(C(=N3)NCCC4=CN=CN4)Br
Method in brief: as §1

[9] = compound: C1CN(CCC1(CC2=CC=C(C=C2)Cl)N)C3=NC=NC4=C3C=CN4
Method in brief: as §1

[10] = compound: C1COCCN1CCN2C3=CC=CC=C3N=C2NC(=O)C4=CC(=CC=C4)[N+](=O)[O-] [IRAK-1-4 Inhibitor I]
Method in brief: as §1

Measured: log2 fold change

PTPN11 isoform 1 (UniProt Q06124)
inactive: [1] -0.02 | [2] 0.018 | [3] 0.028 | [4] -0.014 | [5] -0.028 | [6] 0.005 | [7] -0.028 | [8] 0.001 | [9] 0.011 | [10] -0.012

PSMD10 (UniProt O75832)
inactive: [1] 0.024 | [2] 0.038 | [3] -0.028 | [4] -0.002 | [5] 0.001 | [6] -0.018 | [7] 0.014 | [8] 0.039 | [9] 0.06 | [10] -0.012

PTBP3 isoform 4 (UniProt O95758)
inactive: [1] 0.027 | [2] 0.044 | [3] -0.01 | [4] -0.02 | [5] 0.051 | [6] -0.001 | [7] 0.03 | [8] -0.025 | [9] 0.016 | [10] 0.015

2 neighbouring entries from above, quoted:
PTPN11 isoform 1 (UniProt Q06124)
inactive: [1] -0.02 | [2] 0.018 | [3] 0.028 | [4] -0.014 | [5] -0.028 | [6] 0.005 | [7] -0.028 | [8] 0.001 | [9] 0.011 | [10] -0.012

PSMD10 (UniProt O75832)
inactive: [1] 0.024 | [2] 0.038 | [3] -0.028 | [4] -0.002 | [5] 0.001 | [6] -0.018 | [7] 0.014 | [8] 0.039 | [9] 0.06 | [10] -0.012

(continued)

PSMA4 (UniProt P25789)
inactive: [1] 0.002 | [2] -0.037 | [3] 0.016 | [4] 0.025 | [5] -0.003 | [6] 0.02 | [7] 0.003 | [8] -0.006 | [9] 0 | [10] 0.003

PTPRS isoform 3 (UniProt Q13332)
inactive: [1] -0.011 | [2] 0.029 | [3] 0.035 | [4] -0.153 | [5] -0.024 | [6] 0.006 | [7] -0.08 | [8] -0.058 | [9] 0.033 | [10] 0.064

PSMB4 (UniProt P28070)
inactive: [1] 0.003 | [2] -0.036 | [3] 0.007 | [4] -0.004 | [5] 0.021 | [6] 0.006 | [7] -0.024 | [8] 0.007 | [9] 0.028 | [10] 0.017

PTGS1 isoform 6 (UniProt P23219)
inactive: [1] -0.044 | [2] 0.118 | [3] 0.033 | [4] -0.105 | [5] -0.005 | [6] 0.086 | [7] -0.03 | [8] 0.008 | [9] -0.025 | [10] 0.061

PTBP1 (UniProt P26599)
inactive: [1] 0.009 | [2] 0.003 | [3] -0.003 | [4] -0.039 | [5] 0.012 | [6] -0.011 | [7] 0.006 | [8] -0.032 | [9] 0.026 | [10] 0.026

PSMB1 (UniProt P20618)
inactive: [1] 0 | [2] -0.065 | [3] 0.053 | [4] 0.016 | [5] -0.033 | [6] -0.013 | [7] -0.01 | [8] 0.003 | [9] 0 | [10] 0.008

PSMD6 isoform 4 (UniProt Q15008)
inactive: [1] -0.012 | [2] 0.013 | [3] 0.002 | [4] 0.008 | [5] -0.048 | [6] -0.004 | [7] -0.009 | [8] 0.004 | [9] -0.006 | [10] 0.004

PRUNE1 (UniProt Q86TP1)
inactive: [1] 0.025 | [2] -0.041 | [3] 0.007 | [4] -0.039 | [5] -0.021 | [6] -0.008 | [7] 0.002 | [8] -0.038 | [9] -0.022 | [10] 0.009

PRPS2 isoform 2 (UniProt P11908)
inactive: [1] 0 | [2] 0.005 | [3] -0.039 | [4] -0.028 | [5] 0.025 | [6] -0.006 | [7] 0.024 | [8] 0.002 | [9] 0.016 | [10] 0.007

PSMB3 (UniProt P49720)
inactive: [1] 0.035 | [2] 0.004 | [3] -0.001 | [4] -0.022 | [5] 0.01 | [6] 0.015 | [7] 0.019 | [8] 0.048 | [9] -0.025 | [10] 0.032

PRUNE2 isoform 3 (UniProt Q8WUY3)
inactive: [1] 0.037 | [2] -0.155 | [3] 0.105 | [4] 0.026 | [5] 0.059 | [6] 0 | [7] -0.08 | [10] 0.003

PSMD1 (UniProt Q99460)
inactive: [1] 0 | [2] -0.025 | [3] 0.024 | [4] -0.009 | [5] -0.023 | [6] -0.003 | [7] -0.021 | [8] 0.012 | [9] 0.007 | [10] -0.014

PRR4 (UniProt Q16378)
inactive: [1] -0.097 | [2] 1.59 | [3] -0.193 | [4] -0.167 | [6] -0.11 | [7] -0.484 | [8] -0.127 | [9] 1.09 | [10] -0.048

PTP4A2 (UniProt Q12974)
inactive: [1] 0.05 | [2] -0.307 | [3] 0.011 | [4] 0.107 | [5] 0.035 | [6] 0.002 | [7] -0.028 | [8] 0.007 | [9] 0.125 | [10] -0.014

PWP1 (UniProt Q13610)
inactive: [1] -0.02 | [2] -0.025 | [3] 0.045 | [4] 0.057 | [5] 0.007 | [6] 0 | [7] 0.031 | [8] 0.008 | [9] -0.032 | [10] 0.005

PSRC1 (UniProt Q6PGN9)
inactive: [1] -0.022 | [2] 0.005 | [3] -0.049 | [4] 0.114 | [5] 0.005 | [6] 0.075 | [7] 0.033 | [8] 0.078 | [9] -0.048 | [10] 0.008

PSMG1 (UniProt O95456)
inactive: [1] -0.011 | [2] -0.024 | [3] 0.043 | [4] -0.023 | [5] 0.066 | [6] 0.02 | [7] -0.014 | [8] -0.017 | [9] -0.014 | [10] 0.011

PTAR1 (UniProt Q7Z6K3)
inactive: [1] 0.009 | [2] 0.036 | [3] 0.067 | [4] -0.062 | [5] -0.052 | [6] -0.04 | [7] -0.028 | [8] 0.011 | [9] -0.066 | [10] 0.05

PSMB5 (UniProt P28074)
inactive: [1] 0.03 | [2] 0.024 | [3] 0.019 | [4] 0.019 | [5] 0.03 | [6] 0.022 | [7] 0.028 | [8] 0.023 | [9] 0.028 | [10] 0.028

PTK7 isoform 6 (UniProt Q13308)
inactive: [1] -0.028 | [2] -0.1 | [3] 0.017 | [4] -0.013 | [5] -0.082 | [6] -0.016 | [7] 0.103 | [8] -0.046 | [9] 0.023 | [10] 0.045

PSMB2 (UniProt P49721)
inactive: [1] 0.01 | [2] 0.037 | [3] -0.016 | [4] 0.017 | [5] 0 | [6] 0.001 | [7] -0.023 | [8] -0.021 | [9] 0.038 | [10] 0.024

PTPN12 (UniProt Q05209)
inactive: [1] 0.023 | [2] -0.006 | [3] 0.015 | [4] 0.02 | [5] -0.004 | [6] -0.005 | [7] -0.011 | [8] -0.014 | [9] 0.017 | [10] 0.011

PRRC2C isoform 7 (UniProt Q9Y520)
inactive: [1] -0.021 | [2] -0.034 | [3] 0.043 | [4] 0.005 | [5] -0.02 | [6] -0.034 | [7] -0.011 | [8] 0.005 | [9] -0.002 | [10] 0.028

PTRHD1 (UniProt Q6GMV3)
inactive: [1] 0.03 | [2] 0.052 | [3] -0.024 | [4] -0.056 | [5] -0.088 | [6] -0.049 | [7] -0.07 | [8] 0.009 | [9] -0.018 | [10] -0.013

PSMC5 (UniProt P62195)
inactive: [1] 0.029 | [2] 0.006 | [3] 0.003 | [4] -0.003 | [5] 0 | [6] 0.005 | [7] 0.004 | [8] 0.04 | [9] -0.013 | [10] -0.002

PTPDC1 isoform 2 (UniProt A2A3K4)
inactive: [1] -0.067 | [2] 0.058 | [3] -0.017 | [4] -0.166 | [5] 0.137 | [7] 0.025

PSTPIP2 (UniProt Q9H939)
inactive: [1] 0.002 | [2] 0.05 | [3] -0.028 | [4] 0.055 | [5] -0.031 | [6] -0.003 | [7] -0.122 | [8] 0.01 | [9] 0.005 | [10] 0.009

PTDSS2 (UniProt Q9BVG9)
inactive: [1] -0.002 | [2] -0.003 | [3] -0.104 | [4] -0.021 | [5] 0.095 | [6] -0.014 | [7] -0.08 | [8] -0.056 | [9] 0.02 | [10] 0.024

PTPMT1 (UniProt Q8WUK0)
inactive: [1] 0.074 | [2] 0.261 | [3] -0.358 | [4] -0.076 | [5] 0.191 | [6] 0.087 | [7] 0.049 | [8] -0.103 | [9] 0.004 | [10] -0.071

PTCD3 (UniProt Q96EY7)
inactive: [1] 0.014 | [2] -0.055 | [3] 0.075 | [4] 0.045 | [5] -0.039 | [6] -0.001 | [7] -0.044 | [8] -0.005 | [9] 0.019 | [10] 0.004

PSD4 (UniProt Q8NDX1)
inactive: [1] 0 | [2] -0.073 | [3] -0.026 | [4] 0.015 | [5] -0.022 | [6] -0.027 | [7] -0.033 | [8] 0.016 | [9] -0.007 | [10] -0.024

Source: the supplement of paper PMC10849652
